Measured values published in PubChem BioAssay AID328 (DTP/NCI, 2004).
The list is a part of this screen's results and no random one: it gathers tests that were run many times, whatever their T/C, doses with no T/C, and many T/C values between a quarter and a half above the control. Other doses and runs of a compound stand elsewhere. T/C gives the treated animals as a percentage of the vehicle group. Some doses have a count of surviving animals in place of a T/C: the source holds a T/C of zero for them, seemingly a mark for toxic or unscored doses. Some doses without a T/C left all or most animals alive at the check, yet need not have been tolerated: survival well below the control is almost never listed, so the zero probably covers shortened survival too. Survivors were counted at the toxicity check, usually on the fifth day, unless a day is given; later deaths do not show. Schedules are NCI's codes, taken here to give the interval after Q, in days (D) or hours (H), and the number of doses after X. Some entries hold several experiments; the results are listed from low to high. Where survival is the endpoint, the PubChem record calls one and a half times the control and up active, and a quarter to a half above the control has no call in these data; cut-offs in other NCI protocols can differ. Some T/C values are followed by the survivors on the day toxicity was checked, most often the fifth; where none is given, no animal had died by that day.

System: BDF1 mice, P388 leukemia ip, median survival T/C
Experiment: NCI In Vivo Anticancer Drug Screen. Data for tumor model P388 Leukemia (intraperitoneal) in B6D2F1 (BDF1) mice
Conditions: T/C endpoint: median survival time, higher T/C = longer survival
Summary of the method: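 Mice carrying the transplantable tumour receive compound or vehicle. Survival is followed in each arm, and the treated measure is divided by the vehicle measure.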

[1] = dose: 200.0 mg/kg/injection, schedule: Q01DX009 (ip), vehicle: saline with Tween-80
[2] = dose: 400.0 mg/kg/injection, schedule: Q01DX009 (ip), vehicle: Klucel (hydroxypropylcellulose) (HPC)
[3] = dose: 25.0 mg/kg/injection, schedule: Q04DX003 (ip), vehicle: saline
[4] = dose: 50.0 mg/kg/injection, schedule: Q04DX003 (ip), vehicle: saline
[5] = dose: 100.0 mg/kg/injection, schedule: Q04DX003 (ip), vehicle: saline
[6] = dose: 400.0 mg/kg/injection, schedule: Q01DX009 (ip), vehicle: saline with Tween-80

With CC12CCC(O)CC1CCC1C2CCC2(C)C(C3=CC(=O)OC3)CCC12 (stereo not given) the T/C (dose: 70.0 mg/kg/injection, schedule: Q01DX010 (ip), vehicle: carboxymethylcellulose (CMC)) was 127 % of control.

For C=C[P+](c1ccccc1)(c1ccccc1)c1ccccc1, the survivor count (dose: 0.75 mg/kg/injection, schedule: Q01DX010 (ip), vehicle: saline) was 6 of 6, the T/C (dose: 1.6 mg/kg/injection, schedule: Q01DX009 (ip), vehicle: saline) was 125 % of control and the T/C (dose: 2.5 mg/kg/injection, schedule: Q01DX009 (ip), vehicle: saline) was 132 % of control. The T/C (dose: 5.0 mg/kg/injection, schedule: Q04DX003 (ip), vehicle: saline) was 125 and 129 % of control, the survivor count (dose: 6.0 mg/kg/injection, schedule: Q01DX010 (ip), vehicle: saline) was 6 of 6 and the T/C (dose: 7.5 mg/kg/injection, schedule: Q04DX003 (ip), vehicle: saline) was 125 % of control [5 of 6 alive]. The survivor count (dose: 10.0 mg/kg/injection, schedule: Q01DX009 (ip), vehicle: saline) was 6 of 6, the survivor count (dose: 10.0 mg/kg/injection, schedule: Q04DX003 (ip), vehicle: saline) was 6 of 6 and the survivor count (dose: 20.0 mg/kg/injection, schedule: Q01DX009 (ip), vehicle: saline) was 6 of 6. The survivor count (dose: 20.0 mg/kg/injection, schedule: Q04DX003 (ip), vehicle: saline) was 6 of 6 and the survivor count (dose: 40.0 mg/kg/injection, schedule: Q04DX003 (ip), vehicle: saline) was 5 of 6.

In the case of CN=S(=O)(OCCCCOS(=O)(=NC)c1ccccc1)c1ccccc1 (stereo not given), the T/C (dose: 25.0 mg/kg/injection, schedule: Q01DX009 (ip), vehicle: saline with Tween-80) is reported as 131 % of control, the T/C (dose: 50.0 mg/kg/injection, schedule: Q01DX009 (ip), vehicle: saline with Tween-80, evaluated on day 30) is reported as 146 % of control and the T/C (dose: 50.0 mg/kg/injection, schedule: Q01DX009 (ip), vehicle: saline with Tween-80, evaluated on day 35) is reported as 138 % of control. The survivor count (dose: 100.0 mg/kg/injection, schedule: Q01DX009 (ip), vehicle: saline with Tween-80) was 5 of 6 and 6 of 6 and the survivor count [1] was 2 of 6.

For CC(C)(C)NC(C1=CC(C)(C)c2ccccc2C1=O)c1ccccc1 (stereo not given), the T/C [2] was 130 % of control.

In the case of COc1cc2c(cc1OC)C(=O)C(c1ccc3c(c1)OCO3)CC2 (stereo not given), the survivor count (dose: 200.0 mg/kg/injection, schedule: Q04DX003 (ip), vehicle: water) is reported as 6 of 6 and the survivor count (dose: 400.0 mg/kg/injection, schedule: Q04DX003 (ip), vehicle: water) is reported as 6 of 6.

For COCCOCCN1CCN(CCCN2c3ccccc3Sc3ccc(C(F)(F)F)cc32)CC1, the T/C (dose: 12.5 mg/kg/injection, schedule: Q04DX003 (ip), vehicle: saline) was 144 % of control, the T/C [3] was 127 % of control [5 of 6 alive] and the survivor count [4] was 3 of 6 and 5 of 6. The survivor count [5] was 0 of 6 and 3 of 6.

In the case of CCCCCCCCCCCCCCCCOc1ccc(Cl)cc1, the survivor count (dose: 100.0 mg/kg/injection, schedule: Q01DX001 (ip), vehicle: saline sonified) is reported as 6 of 6.

For Cc1c(C)c2c(N)c3ccccc3nc2c2ccccc12, the T/C (dose: 50.0 mg/kg/injection, schedule: Q01DX001 (ip), vehicle: saline with Tween-80) was 131 % of control and the survivor count (dose: 100.0 mg/kg/injection, schedule: Q01DX001 (ip), vehicle: saline with Tween-80) was 0 of 6 and 3 of 6.

For CCCCCCC(=O)/C=C/c1c(Cl)cccc1Cl, the survivor count [6] was 1 of 6.

O=C1c2ccccc2C(=O)N1CNc1ncccn1 was tested, and the survivor count (dose: 50.0 mg/kg/injection, schedule: Q01DX005 (ip), vehicle: saline with Tween-80) was 5 of 5.

NC(=S)N=Nc1c(O)[nH]c2ccccc12 was tested, and the survivor count [2] was 5 of 6.

For CCCCNc1nc(N)nc(Nc2ccc(Br)cc2)c1N=O, the survivor count [1] was 6 of 6, the T/C (dose: 200.0 mg/kg/injection, schedule: Q04DX003 (ip), vehicle: Klucel (hydroxypropylcellulose) (HPC)) was 130 % of control and the survivor count [6] was 6 of 6. For the same compound, the T/C (dose: 400.0 mg/kg/injection, schedule: Q04DX003 (ip), vehicle: Klucel (hydroxypropylcellulose) (HPC)) was 125 % of control [5 of 6 alive].

For COc1cc2c(cc1Oc1c(Oc3c(O)c(OC)cc4c3C(CC(C)C)N(C)CC4)c(OC)cc3c1C(CC(C)C)N(C)CC3)C(CC(C)C)N(C)CC2 (stereo not given), the survivor count (dose: 100.0 mg/kg/injection, schedule: Q01DX010 (ip), vehicle: saline) was 6 of 6.

In the case of COC(=O)C(Cc1ccccc1)NS(=O)(=O)c1ccc(C)cc1 (stereo not given), the survivor count (dose: 100.0 mg/kg/injection, schedule: Q01DX005 (ip), vehicle: saline with Tween-80) is reported as 5 of 5.

COC(=O)C1=COC(C)C(C=O)C1CC(=O)O (stereo not given) was tested, and the T/C (dose: 14.5 mg/kg/injection, schedule: Q04DX003 (ip), vehicle: saline) was 131 % of control, the T/C (dose: 22.0 mg/kg/injection, schedule: Q04DX003 (ip), vehicle: saline) was 133 % of control and the T/C [3] was 138 % of control. For the same compound, the T/C (dose: 33.0 mg/kg/injection, schedule: Q04DX003 (ip), vehicle: saline) was 131 % of control, the T/C [4] was 125 % of control and the T/C [5] was 138 % of control.

For C=C(C)C12CC(C)C34OC5(CCCCCCCC(C)C6C(C)C(OC(=O)c7ccccc7)C(O)(C(O)C7(COC(=O)CCCCCCCCCCCCCCC)OC7C3C1O5)C64)O2 (stereo not given), the T/C (dose: 6.2 micrograms/kg/injection, schedule: Q01DX009 (ip), vehicle: saline + alcohol) was 144 % of control, the T/C (dose: 40.0 micrograms/kg/injection, schedule: Q01DX009 (ip), vehicle: saline + alcohol) was 128 % of control and the survivor count (dose: 100.0 micrograms/kg/injection, schedule: Q01DX009 (ip), vehicle: saline + alcohol) was 3 of 4.
